PubChem BioAssay AID1224826 – NIAID | 2016
The whole screen tested about 17,000 reagents; this is a part drawn at random. In the full data, about 1,110 (6.6%) got an active call. 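Active means lowered or raised reporter signal; replicate intensities are raw and not normalised per plate.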 Further read-outs or replicates are left out here.

- Aim: 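Genes that change LPS-induced Tnf promoter activity in mouse macrophages when knocked down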 (primary screen)
- Cells: RAW264.7 G9 macrophages from mouse bearing reporters for p65 (GFP) and the Tnf promoter (mCherry)
- Knock-down reagent: siRNA pool against mouse genes, 100 nM
- Timing: 16 h of LPS stimulation, after 2 days of siRNA transfection
- Challenge: bacterial lipopolysaccharide (Salmonella minnesota R595), 10 ng/ml
- Measurement: 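Imaged Tnf reporter mCherry in nuclei, minus background, normalised per plate to the median and expressed as robust z-scores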
- Reading the numbers: Tnf reporter robust z-score: higher = stronger Tnf promoter reporter signal after LPS
- Call rule: 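Called active when robust z-score is at most -1.3, matching the median of the Tlr4 knock-down control, or over 3; control wells and wells with under 50 cells never active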
- Calls: active = Tnf reporter clearly lowered or raised; inactive = no clear change in Tnf reporter

Eif3c (GeneID 56347) scored fewer than 50 cells in well fewer than 50 cells per well; well left out of calls; inactive.
Against Atp6v1e1 (GeneID 11973) the deposit lists Tnf reporter robust z-score -0.14; fewer than 50 cells in well enough cells in well; inactive.
Knock-down of 1700065D16Rik (GeneID 73410) gave: Tnf reporter robust z-score 1.11; fewer than 50 cells in well enough cells in well; inactive.
After knock-down of Atp6ap1 (GeneID 54411) the results were Tnf reporter robust z-score -1.08; fewer than 50 cells in well enough cells in well; inactive.
Silencing of Tcl1b3 (GeneID 27378) came out at: fewer than 50 cells in well fewer than 50 cells per well; well left out of calls; inactive.
Against Snip1 (GeneID 76793), the entry reads Tnf reporter robust z-score -0.32; fewer than 50 cells in well enough cells in well; inactive.
With knock-down of Gpatch3 (GeneID 242691) the results were Tnf reporter robust z-score 0.27; fewer than 50 cells in well enough cells in well; inactive.
For Pappa (GeneID 18491) the deposit lists Tnf reporter robust z-score -0.06; fewer than 50 cells in well enough cells in well; inactive.
With knock-down of Gpkow (GeneID 209416) the results were Tnf reporter robust z-score 1.01; fewer than 50 cells in well enough cells in well; inactive.

2 successive records already listed, quoted:
1700065D16Rik (GeneID 73410) | Tnf reporter robust z-score: 1.11; fewer than 50 cells in well: enough cells in well; Call: inactive
Atp6ap1 (GeneID 54411) | Tnf reporter robust z-score: -1.08; fewer than 50 cells in well: enough cells in well; Call: inactive

The list goes on:
St6gal2 (GeneID 240119) scored Tnf reporter robust z-score -0.39; fewer than 50 cells in well enough cells in well; inactive.
With knock-down of Cnksr1 (GeneID 194231) the results were Tnf reporter robust z-score 2.72; fewer than 50 cells in well enough cells in well; inactive.
Cryba1 (GeneID 12957) gave Tnf reporter robust z-score -0.87; fewer than 50 cells in well enough cells in well; inactive.
For Rbck1 (GeneID 24105) the deposit lists Tnf reporter robust z-score 1.13; fewer than 50 cells in well enough cells in well; inactive.
Colgalt2 (GeneID 269132) gave Tnf reporter robust z-score 0.16; fewer than 50 cells in well enough cells in well; inactive.
